Paper PMC11904782
These are yes or no findings as the source states them, for the method shown. Binding seen in cells or lysates may run through a third protein. A result given as binding can be weak or reduced; the word gives no strength.

Amino acid sequences for entries named in this document (tags omitted). A change or cut given only in a name is not applied to a line headed by its entry.
UniProt Q8NFD5: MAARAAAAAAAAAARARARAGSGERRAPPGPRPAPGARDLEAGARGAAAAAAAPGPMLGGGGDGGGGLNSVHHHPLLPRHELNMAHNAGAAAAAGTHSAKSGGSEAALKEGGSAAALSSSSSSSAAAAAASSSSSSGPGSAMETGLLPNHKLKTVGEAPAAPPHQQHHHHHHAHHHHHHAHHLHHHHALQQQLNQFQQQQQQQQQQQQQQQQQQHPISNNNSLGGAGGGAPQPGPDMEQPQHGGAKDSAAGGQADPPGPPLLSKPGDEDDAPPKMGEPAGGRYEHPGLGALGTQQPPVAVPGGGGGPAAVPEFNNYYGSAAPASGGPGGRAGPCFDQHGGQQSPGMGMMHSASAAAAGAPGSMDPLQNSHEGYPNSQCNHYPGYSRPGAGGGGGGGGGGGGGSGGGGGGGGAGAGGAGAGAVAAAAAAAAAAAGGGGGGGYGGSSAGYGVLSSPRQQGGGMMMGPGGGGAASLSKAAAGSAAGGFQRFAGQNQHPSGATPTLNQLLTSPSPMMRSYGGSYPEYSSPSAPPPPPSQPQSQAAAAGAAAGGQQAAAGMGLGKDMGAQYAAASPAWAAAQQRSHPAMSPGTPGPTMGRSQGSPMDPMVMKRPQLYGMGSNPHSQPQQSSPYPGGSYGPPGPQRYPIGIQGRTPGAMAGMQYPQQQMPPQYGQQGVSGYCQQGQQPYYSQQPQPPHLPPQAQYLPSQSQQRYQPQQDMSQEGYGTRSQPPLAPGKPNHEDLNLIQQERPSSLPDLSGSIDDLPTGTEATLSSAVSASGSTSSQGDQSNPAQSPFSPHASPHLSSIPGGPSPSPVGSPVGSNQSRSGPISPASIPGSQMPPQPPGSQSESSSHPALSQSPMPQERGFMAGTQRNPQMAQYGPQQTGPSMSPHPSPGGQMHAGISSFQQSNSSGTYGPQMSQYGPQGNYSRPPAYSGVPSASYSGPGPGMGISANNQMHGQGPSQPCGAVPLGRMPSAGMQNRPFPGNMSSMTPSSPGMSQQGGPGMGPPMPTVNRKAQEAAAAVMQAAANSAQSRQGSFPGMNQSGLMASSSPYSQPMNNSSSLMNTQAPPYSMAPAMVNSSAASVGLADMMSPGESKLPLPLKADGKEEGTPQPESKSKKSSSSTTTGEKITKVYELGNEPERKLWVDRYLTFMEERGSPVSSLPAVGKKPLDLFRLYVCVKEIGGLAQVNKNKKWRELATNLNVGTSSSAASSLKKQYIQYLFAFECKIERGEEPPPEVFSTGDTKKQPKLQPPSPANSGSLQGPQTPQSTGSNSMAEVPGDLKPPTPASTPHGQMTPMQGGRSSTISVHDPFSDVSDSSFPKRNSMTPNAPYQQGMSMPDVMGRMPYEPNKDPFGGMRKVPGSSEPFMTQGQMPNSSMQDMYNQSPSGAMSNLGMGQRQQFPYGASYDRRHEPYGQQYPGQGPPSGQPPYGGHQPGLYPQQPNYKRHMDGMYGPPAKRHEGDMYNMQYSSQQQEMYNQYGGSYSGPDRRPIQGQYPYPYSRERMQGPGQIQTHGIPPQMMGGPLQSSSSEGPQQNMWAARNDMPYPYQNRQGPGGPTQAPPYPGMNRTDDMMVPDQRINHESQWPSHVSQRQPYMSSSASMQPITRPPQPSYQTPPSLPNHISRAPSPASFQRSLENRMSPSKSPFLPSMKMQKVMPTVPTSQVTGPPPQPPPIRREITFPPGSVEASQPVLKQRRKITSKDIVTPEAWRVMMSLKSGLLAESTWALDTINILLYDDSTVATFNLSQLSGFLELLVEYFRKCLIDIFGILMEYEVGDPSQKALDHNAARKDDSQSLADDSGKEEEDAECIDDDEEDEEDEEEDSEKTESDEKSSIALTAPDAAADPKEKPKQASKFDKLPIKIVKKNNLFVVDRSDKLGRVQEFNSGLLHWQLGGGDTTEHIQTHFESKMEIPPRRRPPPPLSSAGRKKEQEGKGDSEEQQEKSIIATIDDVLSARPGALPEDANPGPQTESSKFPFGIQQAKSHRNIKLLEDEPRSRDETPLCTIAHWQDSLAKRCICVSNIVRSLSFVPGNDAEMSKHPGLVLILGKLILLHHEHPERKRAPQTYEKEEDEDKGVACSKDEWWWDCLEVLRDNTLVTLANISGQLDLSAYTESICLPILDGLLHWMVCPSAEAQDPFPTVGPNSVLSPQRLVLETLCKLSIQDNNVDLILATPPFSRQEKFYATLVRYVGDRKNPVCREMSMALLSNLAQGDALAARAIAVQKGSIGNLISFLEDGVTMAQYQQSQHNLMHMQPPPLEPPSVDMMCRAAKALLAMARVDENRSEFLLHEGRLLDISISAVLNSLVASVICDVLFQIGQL

Biological target: GST–ARID1B–ARM: ARM domain of ARID1B (aa 1861–2236) (UniProt Q8NFD5)
Experiment: pull-down; GST–ARID1A mutants or GST–ARID1B–ARM on Glutathione Sepharose beads incubated with HEK293 (methods: 293T) nuclear extract for 4 h at 4°C with RNase A and DNase I; bound proteins by immunoblot; only the target purified

B1: DNA polymerase λ (POLL) (protein, UniProt Q9UGP5 1-575)
chain: MDPRGILKAFPKRQKIHADASSKVLAKIPRREEGEEAEEWLSSLRAHVVRTGIGRARAELFEKQIVQHGGQLCPAQGPGVTHIVVDEGMDYERALRLLRLPQLPPGAQLVKSAWLSLCLQERRLVDVAGFSIFIPSRYLDHPQPSKAEQDASIPPGTHEALLQTALSPPPPPTRPVSPPQKAKEAPNTQAQPISDDEASDGEETQVSAADLEALISGHYPTSLEGDCEPSPAPAVLDKWVCAQPSSQKATNHNLHITEKLEVLAKAYSVQGDKWRALGYAKAINALKSFHKPVTSYQEACSIPGIGKRMAEKIIEILESGHLRKLDHISESVPVLELFSNIWGAGTKTAQMWYQQGFRSLEDIRSQASLTTQQAIGLKHYSDFLERMPREEATEIEQTVQKAAQAFNSGLLCVACGSYRRGKATCGDVDVLITHPDGRSHRGIFSRLLDSLRQEGFLTDDLVSQEENGQQQKYLGVCRLPGPGRRHRRLDIIVVPYSEFACALLYFTGSAHFNRSMRALAKTKGMSLSEHALSTAVVRNTHGCKVGPGRVLPTPTEKDVFRLLGLPYREPAERDW
- binding: binds
